{"source": "patent US12258335B1", "about": "“Matrix metalloproteinase (MMP) inhibitors and methods of use thereof” (Foresee Pharmaceuticals USA, Inc., priority 2018, dated 2025)", "key": {"[1]": {"tested_on": "bleomycin (BLM) induced unilateral lung fibrosis model in Sprague Dawley (SD) rats", "assay": "Bleomycin-induced SD rat unilateral lung fibrosis model for IPF", "format": "in vivo", "procedure": "The purpose of this study was to evaluate the therapeutic effect of FC-4 on bleomycin (BLM) induced unilateral lung fibrosis model in Sprague Dawley (SD) rats. Male SD rats (n=50) were randomly divided into the following groups: Sham group (n=10), Model group (n=10), FC-4 administered at 10 mg/kg/day group (n=10), FC-4 administered at 30 mg/kg/day group (n=10), and FC-4 administered at 100 mg/kg/day group (n=10). All test drugs were delivered orally starting from day 8 of modeling for 14 days. Saline solution was taken for sham and model groups once a day, and FC-4 twice a day for drug treatment groups. Rats were anesthetized and the trachea was exposed. Saline was administrated via direct intra-trachea injection in the sham group, and the other groups' animals received a BLM injection at a dose of 3 mg/kg in volume of 1.0 ml/kg. All animals were processed using a non invasive lung function test with EMMS Whole Body Plethysmography system at pre-modeling, and at days 3, 7, 11, 14, 18 and 21 of modeling. One day after the last drug delivery, the left lung of all animals was perfused with 10% formalin, and processed for pathology analysis.\nAnimals: Species and quality level: SD rats, SPF grade. Gender and number: male, 93. Purchasing body weight range: 260-280 g. Company Certificate No.: SCXX (Jing) 2012-001, Beijing Vital River Laboratory Animal Technology Co., Ltd. Animal Housing: Rats were housed in the Animal House Facility of the Nanjing BioSciKin Co. Ltd. under international standards for temperature, humidity and light control system. The animal use protocol was reviewed and approved by the Institutional Animal Care and Use Committee (IACUC) of KCI Biotech Inc. All experimental procedures were conducted in conformity with institutional guidelines of KCI Biotech Inc.\nModel Establishment: This study was carried out in strict accordance with the SOP institutional guidelines for the care and use of laboratory animals. Rats were anesthetized by intraperitoneal injection of pentobarbital sodium at dose of 50 mg/kg. Then rat neck skin was disinfected and opened in layers. The trachea was exposed carefully. Bleomycin (BLM) was directly injected into the left main bronchus at a dose of 3 mg/kg body weight in volume of 1.0 ml/kg via a cannula. After closing the trachea and skin in layers the animal was moved on an electric heat pad at 37° C. to await waking up from the anesthesia before returning to holding cages with free access to water and diet.\nExperiment Grouping: Rats were assigned into 5 groups: Sham (Group-1, n=10), Model (Group-2, n=10), FC-4-Low dose (Group-3, 10 mg/kg/day, n=10), FC-4-Middle dose (Group-4, 30 mg/kg/day, n=10), FC-4-High dose (Group-5, 100 mg/kg/day, n=10) (Table 1). Drug administration: Test article FC-4 were designed as an oral administration via a gastric perfusion. FC-4 was delivered twice a day starting from day-8 of modeling for 14 days. (Table 3.1).\nEndpoint: a) Non invasive lung function test: All animals were given a non-invasive lung function examination with EMMS Whole Body Plethysmography (WBP) system at multiple time points during the study periods, including at pre-IPF modeling, day-3 of IPF, day-7 of IPF before dosing, day-11 of IPF, day-14 of IPF, day-18 of IPF and day-21 of IPF before sacrificing the animals, focusing on the parameters of tidal volume (TV), breath rate, inspiratory volume per minute (MV) and Penh. index. b) Left lung collection for pathology analysis: After the last examination of lung function, all animals were euthanized according to the standard SOP at KCI. After confirming the animal death, each animal received a systemic perfusion with 10% formaldehyde solution, then the left lung was harvested and perfused again with an equal volume of 10% formaldehyde solution (3 ml for each lung). […]"}, "[2]": {"tested_on": "renal fibrosis model by unilateral ureteral occlusion (UUO)", "assay": "SD rat kidney fibrosis model by unilateral ureteral occlusion (UUO)", "format": "in vivo, Sprague Dawley (SD) rats"}}, "note": "For at least one compound, name, drawing or mass did not settle the structure."}
{"smiles": "Cc1cc(COc2ccc(Sc3ccoc3C3NC(=O)NC3=O)cc2)ccn1", "note": "(stereo not drawn) [FC-4]", "values": [{"measurement": "Therapeutic effect on lung fibrosis", "setting": "[1]; 10 mg/kg/day, vs model group", "value": "significant therapeutic effect"}, {"measurement": "Therapeutic effect on lung fibrosis", "setting": "[1]; 30 mg/kg/day and 100 mg/kg/day, clear dose dependent effect not observed", "value": "significant therapeutic effect"}, {"measurement": "Fibrosis by Ashcraft scoring", "setting": "[1]; Masson Trichrome staining, vs model", "value": "significant reduction in fibrosis"}, {"measurement": "Reduction of bronchial and arteriole damages in fibrotic core and border of fibrosis", "setting": "[1]; all doses", "value": "significant therapeutic effect"}, {"measurement": "MMP-12 expression in fibrosis core (IHC)", "setting": "[1]; clear dose dependent reduction, p>0.05", "value": "significant reduction"}, {"measurement": "Collagen-I deposition in fibrosis core (IHC)", "setting": "[1]; each dose p<0.05", "value": "significant dosing dependent reduction"}, {"measurement": "Collagen-IV deposition in fibrosis core (IHC)", "setting": "[1]; p<0.05", "value": "significant dose dependent reduction"}, {"measurement": "Elastin expression in fibrosis core (IHC)", "setting": "[1]; p<0.05", "value": "significant reduction"}, {"measurement": "TGF-β1 expression in fibrosis core (IHC)", "setting": "[1]; p<0.05", "value": "significant reduction"}, {"measurement": "Non invasive lung function (TV, MV, breath rate, Penh)", "setting": "[1]; vs vehicle treated animals, each test time point", "value": "did not show any significant changes"}, {"measurement": "Collagen-IV deposition in cortex area of left kidney (IHC)", "setting": "[2]; 6 mg/kg/day (p<0.05)", "value": "significant reduction"}, {"measurement": "Left kidney tubular damage", "setting": "[2]; 20 mg/kg/d more effective than 2 mg/kg/day (p<0.01)", "value": "clear dose dependent effect"}, {"measurement": "Collagen-I deposition in cortex area of left kidney (IHC)", "setting": "[2]; 20 mg/kg/day", "value": "significant reduction"}, {"measurement": "Collagen-IV deposition in cortex area of left kidney (IHC)", "setting": "[2]; 20 mg/kg/day (p<0.001)", "value": "significant reduction"}, {"measurement": "Interstitial fibrosis score in cortex", "setting": "[2]; 20 mg/kg/day (p<0.001)", "value": "significant reduction"}, {"measurement": "Serum BUN elevation", "setting": "[2]; 20 mg/kg/day, day-15, vs vehicle, not statistically significant", "value": "slightly limit the BUN elevation"}, {"measurement": "Interstitial fibrosis score in cortex", "setting": "[2]; all dose groups", "value": "significant reduction"}, {"measurement": "Interstitial inflammation in cortex (semi quantitative)", "setting": "[2]; dose dependent efficacy", "value": "significant reduction"}]}
